Record: PubChem BioAssay AID1259254 (NCATS, 2017)

- Aim: 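Finding genes that stop cells copying their DNA twice in one cycle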 (primary screen)
- Cells: human HCT116 colorectal cancer cells
- Reagent: single siRNA against human genes
- Duration: 3 days
- Measurement: 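Nuclei stained with Hoechst and imaged; cell-cycle phase assigned by DNA content; G2 share scaled per plate, non-targeting siRNA 0%, GMNN siRNA 100%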
- Reading the numbers: G2 robust z-score and G2 cells, % of GMNN control: higher = more G2 cells, more excess DNA replication
- Rule for the call: 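An siRNA counts as active if its G2 robust z-score lies at least 5 MADs above the screen median; here such calls match roughly 38% of GMNN control or more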
This is one part, drawn at random, of about 59,000 deposited reagents. About 1,550 of all reagents (2.6%) were called active. 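G2 share is only a proxy for re-replication; each gene was hit by three separate siRNAs, and active genes were retested.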 A number with no mark means an inactive call. The numbers tell different reagents against one gene apart. Further read-outs or replicates are left out here. The record does not give: the amount of reagent.

| target | reagent no. | G2 robust z-score | G2 cells, % of GMNN control |
| --- | --- | --- | --- |
| RIOX1 | 1 | -1.1 | -4.76 |
| RIOX1 | 2 | 0.186 | 4.28 |
| RIOX1 | 3 | 0.544 | 6.8 |
| MPEG1 | 1 | 0.00473 | 3 |
| MPEG1 | 2 | -0.492 | -0.491 |
| MPEG1 | 3 | 4.44 | 34.2 |
| CACNG6 | 1 | 3.13 | 25 |
| CACNG6 | 2 | -1.07 | -4.54 |
| CACNG6 | 3 | 2.4 | 19.9 |
| IGFBP7-AS1 | 1 | -0.505 | -0.588 |
| IGFBP7-AS1 | 2 | -0.748 | -2.3 |
| IGFBP7-AS1 | 3 | 0.454 | 6.16 |
| FBXO30 | 1 | 2.99 | 24 |
| FBXO30 | 2 | 0.175 | 4.2 |
| FBXO30 | 3 | -0.687 | -1.87 |
| LAMTOR4 | 1 | -0.332 | 0.629 |
| LAMTOR4 | 2 | -0.637 | -1.52 |
| LAMTOR4 | 3 | 3.84 | 30 |
| PPARGC1A | 1 | 3.58 | 28.1 |
| PPARGC1A | 2 | -1.16 | -5.21 |
| PPARGC1A | 3 | -0.675 | -1.78 |
| FOXC1 | 1 | -0.885 | -3.26 |
| FOXC1 | 2 | 0.0949 | 3.64 |
| FOXC1 | 3 | -0.593 | -1.2 |
| DPH7 | 1 | 3.48 | 27.4 |
| DPH7 | 2 | -0.379 | 0.302 |
| DPH7 | 3 | 0.902 | 9.31 |
| SOD3 | 1 | -0.66 | -1.68 |
| SOD3 | 2 | -0.331 | 0.637 |
| SOD3 | 3 | -0.451 | -0.202 |
| NPR1 | 1 | -0.307 | 0.81 |
| NPR1 | 2 | 1.74 | 15.2 |
| NPR1 | 3 | 0.906 | 9.34 |
| SLC17A2 | 1 | 2.01 | 17.1 |
| SLC17A2 | 2 | 1.43 | 13 |
| SLC17A2 | 3 | -1.04 | -4.33 |
| GATA5 | 1 | 0.188 | 4.29 |
| GATA5 | 2 | -0.338 | 0.59 |
| GATA5 | 3 | -0.54 | -0.832 |
| ACKR1 | 1 | 0.142 | 3.97 |
| ACKR1 | 2 | 5.11 (active) | 38.9 |
| ACKR1 | 3 | -0.585 | -1.15 |
| EZR | 1 | -0.628 | -1.45 |
| EZR | 2 | 0.294 | 5.03 |
| EZR | 3 | -0.398 | 0.17 |

A run of entries taken from the entries so far, for reference:
| target | reagent no. | G2 robust z-score | G2 cells, % of GMNN control |
| --- | --- | --- | --- |
| RIOX1 | 1 | -1.1 | -4.76 |
| RIOX1 | 2 | 0.186 | 4.28 |
| RIOX1 | 3 | 0.544 | 6.8 |
| MPEG1 | 1 | 0.00473 | 3 |
| MPEG1 | 2 | -0.492 | -0.491 |
| MPEG1 | 3 | 4.44 | 34.2 |
| CACNG6 | 1 | 3.13 | 25 |
| CACNG6 | 2 | -1.07 | -4.54 |

Next reagents follow:
| target | reagent no. | G2 robust z-score | G2 cells, % of GMNN control |
| --- | --- | --- | --- |
| MSL1 | 1 | 1.06 | 10.4 |
| MSL1 | 2 | 0.238 | 4.64 |
| MSL1 | 3 | -0.875 | -3.19 |
| PDE10A | 1 | -0.137 | 2 |
| PDE10A | 2 | 2.02 | 17.2 |
| PDE10A | 3 | 1.6 | 14.2 |
| C10orf95 | 1 | -1.1 | -4.76 |
| C10orf95 | 2 | -0.343 | 0.555 |
| C10orf95 | 3 | 0.124 | 3.84 |
| PNLIPRP2 | 1 | -0.254 | 1.18 |
| PNLIPRP2 | 2 | -0.48 | -0.411 |
| PNLIPRP2 | 3 | -0.356 | 0.465 |
| TXNL4A | 1 | 0.424 | 5.95 |
| TXNL4A | 2 | 0.256 | 4.77 |
| TXNL4A | 3 | 0.371 | 5.58 |
| CFAP144P1 | 1 | 7.45 (active) | 55.4 |
| CFAP144P1 | 2 | -1.28 | -6.05 |
| CFAP144P1 | 3 | 2.42 | 20 |
| CAPZA3 | 1 | 0.288 | 5 |
| CAPZA3 | 2 | -0.891 | -3.3 |
| CAPZA3 | 3 | -0.619 | -1.39 |
| TINCR | 1 | -0.645 | -1.57 |
| TINCR | 2 | 0.177 | 4.21 |
| TINCR | 3 | 0.359 | 5.5 |
